Values joined by “and” are separate entries in the source; they are usually repeats but may differ in a detail not shown here. Equal values may be shown once. At least one peptide structure holds a part that was inferred or is arguable (an end, a ring closure or a residue). Some entries repeat one wording, which the source may state once for all of them. Starred links: 1 amine or outer side, 2 acyl side, 3 side chain; linkers in the order of their positions; H or OH if unused. Non-standard residues stand in square brackets, D forms with d. Residues, ends and D or L forms follow the SMILES beside them. Groups on a side chain read outwards from the residue. *: point of attachment. C18 diacid = O=C(O)CCCCCCCCCCCCCCCCC(=O)*; γGlu = O=C(O)[C@H](CCC(=O)[*:2])N[*:1]; AEEA = NCCOCCOCC(=O)O; Aib = CC(C)(N)C(=O)O
What was measured:
glucagon receptor (GCGR) = molecular target: T1, glucagon receptor (GCGR) (Homo sapiens, UniProt P47871); test: HTRF cAMP assay in HEK293/GCGR/Gα15 cells; assay type: cell-based; details: dose-dependent format, glucagon positive control
T1 construct: expressed in transfected cells; host or cells: HEK293 co-expressing Gα15

Sequences of proteins named here, by UniProt entry; tags and fusion partners are left off. Residues count along the entry.
UniProt P47871, 26-477, species assumed: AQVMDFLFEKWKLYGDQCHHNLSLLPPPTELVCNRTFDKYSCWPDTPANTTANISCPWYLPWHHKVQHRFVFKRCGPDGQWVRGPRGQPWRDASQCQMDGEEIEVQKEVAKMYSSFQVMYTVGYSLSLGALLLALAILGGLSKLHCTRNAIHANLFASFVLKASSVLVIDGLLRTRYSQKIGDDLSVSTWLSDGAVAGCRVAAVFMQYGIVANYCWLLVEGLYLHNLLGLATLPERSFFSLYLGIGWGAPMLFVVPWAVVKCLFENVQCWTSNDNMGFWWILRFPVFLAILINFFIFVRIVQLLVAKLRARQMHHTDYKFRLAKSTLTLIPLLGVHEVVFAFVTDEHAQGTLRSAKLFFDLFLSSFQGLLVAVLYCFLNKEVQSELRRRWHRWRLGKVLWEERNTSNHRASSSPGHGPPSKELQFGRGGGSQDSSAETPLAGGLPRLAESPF
UniProt P43220, 24-463: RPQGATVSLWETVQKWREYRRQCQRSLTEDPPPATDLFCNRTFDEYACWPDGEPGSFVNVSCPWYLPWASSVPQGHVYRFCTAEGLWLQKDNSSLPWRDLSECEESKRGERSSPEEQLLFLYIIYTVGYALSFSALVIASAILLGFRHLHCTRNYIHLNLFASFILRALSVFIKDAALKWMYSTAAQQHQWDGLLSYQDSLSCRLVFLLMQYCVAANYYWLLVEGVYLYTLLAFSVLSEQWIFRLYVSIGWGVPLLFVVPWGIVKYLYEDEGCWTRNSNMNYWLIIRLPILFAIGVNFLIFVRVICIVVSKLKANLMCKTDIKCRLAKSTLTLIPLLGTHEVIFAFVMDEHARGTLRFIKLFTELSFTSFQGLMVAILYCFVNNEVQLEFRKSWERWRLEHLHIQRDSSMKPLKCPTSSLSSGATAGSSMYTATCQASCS

[1] = GLP-1 analog adhesion to plastic (transfer between 5 polypropylene tubes, HPLC); assay type: physicochemical
[2] = GLP-1 analog stability in formulation (PBS, HPLC); assay type: physicochemical; details: for Concentration / HPLC Purity: Injection 1 and 2
[3] = tested on: Diet-Induced Obese (DIO C57BL/6 J) mice; test: Anti-obesity efficacy study in DIO mice; assay type: in vivo; details: 28 days of treatment, 5 nmol/kg subcutaneous injection
human GIPR = molecular target: T2, human GIPR (Homo sapiens, UniProt P48546); test: Cell-based human GIPR luciferase reporter assay (recombinant Huh7 cells); details: Huh7 CRE-luciferase, compared to tirzepatide
T2 construct: recombinant Huh7 cells expressing the native GIPR; expressed in transfected cells; host or cells: Huh7
T2 sequence (P48546 22-466): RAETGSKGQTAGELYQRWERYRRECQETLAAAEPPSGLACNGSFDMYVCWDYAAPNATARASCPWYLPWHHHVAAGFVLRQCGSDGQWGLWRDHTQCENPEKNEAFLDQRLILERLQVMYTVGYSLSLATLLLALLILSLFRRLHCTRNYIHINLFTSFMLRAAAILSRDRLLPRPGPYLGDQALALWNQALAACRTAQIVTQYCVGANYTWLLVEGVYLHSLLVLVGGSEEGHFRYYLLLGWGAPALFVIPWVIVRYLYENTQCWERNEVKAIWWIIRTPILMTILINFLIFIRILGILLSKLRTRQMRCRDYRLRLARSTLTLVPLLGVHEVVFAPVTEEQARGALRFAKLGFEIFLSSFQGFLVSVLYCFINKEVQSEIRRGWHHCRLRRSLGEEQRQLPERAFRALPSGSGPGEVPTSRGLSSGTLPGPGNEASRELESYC

GLP-1R [4] = molecular target: T3, GLP-1R (Homo sapiens, UniProt P43220); test: Cell-Based Tag-Lite GLP-1R Receptor Binding FRET Assay; parameters: purchased; details: in words
GLP-1R [5] = molecular target: T3, GLP-1R; test: CRE-Luciferase Reporter Assay (recombinant HEK293 cells); assay type: cell-based; parameters: expressed in transfected cells; host or cells: HEK293; details: in words

**Q.** With `CC[C@H](C)[C@H](NC(=O)[C@H](Cc1ccccc1)NC(=O)[C@H](CCC(=O)O)NC(=O)[C@H](CCCCNC(=O)COCCOCCNC(=O)COCCOCCNC(=O)CC[C@H](NC(=O)CCCCCCCCCCCCCCCCC(=O)O)C(=O)O)NC(=O)[C@H](C)NC(=O)[C@H](C)NC(=O)[C@H](CCC(N)=O)NC(=O)CNC(=O)[C@H](CCC(=O)O)NC(=O)C(C)(C)NC(=O)[C@H](Cc1ccc(O)cc1)NC(=O)[C@H](CO)NC(=O)[C@H](CO)NC(=O)[C@@H](NC(=O)[C@H](CC(=O)O)NC(=O)[C@H](CO)NC(=O)[C@@H](NC(=O)[C@H](Cc1ccccc1)NC(=O)[C@@H](NC(=O)CNC(=O)[C@H](CCC(=O)O)NC(=O)C(C)(C)NC(=O)[C@@H](N)Cc1c[nH]cn1)[C@@H](C)O)[C@@H](C)O)C(C)C)C(=O)N[C@@H](C)C(=O)N[C@@H](Cc1c[nH]c2ccccc12)C(=O)N[C@@H](CC(C)C)C(=O)N[C@H](C(=O)NCC(=O)NCC(=O)N1CCC[C@H]1C(=O)N[C@@H](CO)C(=O)N[C@@H](CO)C(=O)NCC(=O)N[C@@H](C)C(=O)N1CCC[C@H]1C(=O)N1CCC[C@H]1C(=O)N1CCC[C@H]1C(=O)N[C@@H](CO)C(N)=O)C(C)C` [APi3713] (H-H[Aib]EGTFTSDVSSY[Aib]EGQAAK([AEEA-AEEA-γGlu-C18 diacid])EFIAWLVGGPSSGAPPPS-NH2; N-terminus assumed) as the compound, how does the “GCGR activation (cAMP production)” value (glucagon receptor (GCGR)) read?
**A.** The value was “None”.

**Q.** What about the “Area (Mean), Initial Tube” value ([1]; 1.6 μg/mL in PBS) of the same compound?
**A.** The value was 29.3.

**Q.** And the “Area Ratio (Initial/Final Tube, %)” value ([1]; 1.6 μg/mL in PBS)?
**A.** Its value is 90%.

**Q.** And the “Area (Mean), Final Tube” value ([1]; 1.6 μg/mL in PBS, after transfer)?
**A.** Its value is 26.5.

**Q.** And the “HPLC Peak Areas, Final Tube” value ([1]; 1.6 μg/mL in PBS, after transfer between 5 polypropylene tubes, Injection 1 and 2)?
**A.** Its value is 27.0 and 26.0.

**Q.** What about the “HPLC Peak Areas, Initial Tube” value ([1]; 1.6 μg/mL in PBS, Injection 1 and 2) of the same compound?
**A.** The value was 28.6 and 30.0.

**Q.** And the “adhesion to plastic compared to semaglutide” value ([1]; in words)?
**A.** Its value is “less adhesion to plastic”.

**Q.** What about the Concentration ([2]; A: −80° C., 7 d) of the same compound?
**A.** The Concentration was 830 µg/mL and 860 µg/mL.

**Q.** And the “HPLC Purity” value ([2]; A: −80° C., 7 d)?
**A.** The value was 97.64%.

**Q.** And the Concentration ([2]; B: 4° C., 1 d)?
**A.** The Concentration was 890 µg/mL.

**Q.** What about the “HPLC Purity” value ([2]; B: 4° C., 1 d) of the same compound?
**A.** Its value is 97.67% and 97.71%.

**Q.** And the Concentration ([2]; C: 4° C., 3 d)?
**A.** The Concentration was 940 µg/mL.

**Q.** What about the “HPLC Purity” value ([2]; C: 4° C., 3 d) of the same compound?
**A.** The value was 97.67% and 97.72%.

**Q.** And the Concentration ([2]; D: 4° C., 7 d)?
**A.** The Concentration was 960 µg/mL.

**Q.** What about the “HPLC Purity” value ([2]; D: 4° C., 7 d) of the same compound?
**A.** The value was 97.74% and 97.75%.

**Q.** What about the Concentration ([2]; Fresh) of the same compound?
**A.** Its Concentration is 1030 µg/mL.

**Q.** What about the “HPLC Purity” value ([2]; Fresh) of the same compound?
**A.** The value was 97.70% and 97.73%.

**Q.** What about the “concentration of the formulation after storage” value ([2]; remained consistent over storage) of the same compound?
**A.** The value was 1000 µg/mL.

**Q.** What about the “change of purity after storage” value ([2]; storage at 4° C. or −80° C. for 7 days (semaglutide: 4° C. for 7 days), in words) of the same compound?
**A.** The value was “No significant change of purity”.

**Q.** What about the “insulin levels in treated group of mice” value [3] of the same compound?
**A.** The value was “dropped to normal levels”.

**Q.** And the GIPR agonist activity (human GIPR)?
**A.** Its GIPR agonist activity is “no human GIPR agonist activity”.

**Q.** And the “binding to the GLP-1 receptor” value (GLP-1R [4]; absence of HSA)?
**A.** The value was “dose dependent binding”.

**Q.** And the “binding to the GLP-1 receptor” value (GLP-1R [4]; presence of 2% HSA)?
**A.** Its value is “dose dependent binding”.

**Q.** What about the “biological IC50 compared with the IC50 of liraglutide and semaglutide” value (GLP-1R [5]) of the same compound?
**A.** Its value is “similar”.

Reference: patent US20250074964A1 (Ambio, Inc., priority 2023, published 2025)
